{
  "sequences": {"note": "The chains behind the UniProt entries cited, without tags or fusion partners.", "UniProt P26361": "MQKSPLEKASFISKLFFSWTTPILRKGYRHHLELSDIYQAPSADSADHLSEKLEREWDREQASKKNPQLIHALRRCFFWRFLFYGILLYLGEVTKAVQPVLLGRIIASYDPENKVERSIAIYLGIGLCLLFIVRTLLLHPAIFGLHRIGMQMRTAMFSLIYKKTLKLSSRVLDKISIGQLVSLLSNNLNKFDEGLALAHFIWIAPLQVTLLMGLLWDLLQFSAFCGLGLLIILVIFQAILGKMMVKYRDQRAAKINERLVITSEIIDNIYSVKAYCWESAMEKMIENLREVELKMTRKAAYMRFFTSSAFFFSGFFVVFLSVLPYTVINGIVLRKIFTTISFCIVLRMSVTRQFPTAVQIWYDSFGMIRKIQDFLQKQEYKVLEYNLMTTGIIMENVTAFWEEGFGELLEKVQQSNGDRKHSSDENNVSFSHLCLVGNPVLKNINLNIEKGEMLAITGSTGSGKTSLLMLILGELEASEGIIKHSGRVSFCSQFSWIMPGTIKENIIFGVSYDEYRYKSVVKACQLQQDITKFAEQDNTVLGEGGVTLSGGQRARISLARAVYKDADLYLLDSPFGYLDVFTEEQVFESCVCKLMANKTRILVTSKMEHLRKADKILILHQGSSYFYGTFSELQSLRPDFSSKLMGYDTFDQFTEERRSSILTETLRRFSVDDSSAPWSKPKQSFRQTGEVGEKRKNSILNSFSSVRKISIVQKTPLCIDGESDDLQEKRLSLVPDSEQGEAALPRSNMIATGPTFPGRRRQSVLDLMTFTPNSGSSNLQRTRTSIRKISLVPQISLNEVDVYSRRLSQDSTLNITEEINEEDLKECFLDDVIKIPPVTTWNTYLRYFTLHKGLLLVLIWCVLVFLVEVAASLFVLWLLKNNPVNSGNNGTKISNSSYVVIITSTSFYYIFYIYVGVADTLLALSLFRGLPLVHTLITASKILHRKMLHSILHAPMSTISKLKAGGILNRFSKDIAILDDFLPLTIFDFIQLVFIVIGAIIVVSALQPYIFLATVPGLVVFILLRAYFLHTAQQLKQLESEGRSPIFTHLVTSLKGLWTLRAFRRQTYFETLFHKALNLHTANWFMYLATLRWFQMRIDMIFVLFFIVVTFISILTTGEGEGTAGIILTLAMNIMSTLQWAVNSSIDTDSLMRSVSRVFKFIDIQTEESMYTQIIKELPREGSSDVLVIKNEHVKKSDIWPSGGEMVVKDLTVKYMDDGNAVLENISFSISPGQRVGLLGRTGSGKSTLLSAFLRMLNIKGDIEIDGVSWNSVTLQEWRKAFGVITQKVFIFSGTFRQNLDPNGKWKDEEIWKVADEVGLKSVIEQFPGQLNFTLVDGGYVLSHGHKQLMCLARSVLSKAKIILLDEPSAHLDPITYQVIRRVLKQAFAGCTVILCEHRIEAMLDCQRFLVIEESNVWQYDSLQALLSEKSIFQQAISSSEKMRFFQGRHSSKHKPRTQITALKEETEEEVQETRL"},
  "source": "paper PMC5833403",
  "molecules": {"B1": {"name": "Dapper1 (Dpr1), endogenous in zebrafish embryos (protein, UniProt Q6QZN6 1-821)", "chain": "MNEWSEMLVCRDYCALMMRDRKECDARCCRDGEGERVRARERLDATVAGLTELEYLRQRQELLVRSVLSCPEAAGQDKPCLTVDDSYLNTEEKLLEENILLLRKQLNCLRRRDAGLINQLQELDRQISDLRLDTETSHEHVETDSRPSSGFYDLSDGASGSLSNSSNSVFSECLSSCRSTTCLCTPLDTSLCASEGRLKPADDPGSCAECDCHCEDSSSGTVRRSLSASYSPSPDSSCDGISKFHCDLIAKNGNDVYRYPSPLHAVAVQSPIFIQSMTSHLKDDCNFSKPGEALNDEQKPEQVVGSQTSSWHASQMLPNKKLDSYIYGLLQRRAQPLRTNKPRTSINTDPSKSILRQASLCSRAPASVQAQQWTSDLKPNWQTCLQDASATSTEPSTASPQRQWSAESKGGTPQNGAYLSSSQPQNSYSTTNENTNCLLKKKVSGTSKGQLLSATPKDCPDLGSPKAVSSPKLNKHCFYNVEDNKTGQAMKASPLKRSPKTQTSLSCGKDSEQLAQELVSLGSSSQSQDEGGPLVSAQYIPAQKQNVNLQKGGTKNIKIVKVKNSASSKSRPQVFEHVSETVRDKHRTGSRRTRQVDEVHHLHKSSKKASAKTKRIPASIPEGRILERHTSSSGARSSAQRHHGHHRHHEAVLAKPKYKRNDFHRRPRGLHEIPYEEAYRRAHRRQKREMLSHMYLPSNAHYTSPYAYVGSDSEYSAECASLFHSTILDTSEDERSNYTTNCFGDSESSASEADYVAESSTSSDSEGSAGVNWRQISQAGSGSHGMTSAQAKAFVKIKASHNLKKKILRFRSGSLKLMTTV"}},
  "key": {"[1]": {"molecular_target": "T1, Dvl2, endogenous in mouse bone marrow (mouse (endogenous in bone marrow)) (UniProt Q60838)", "T1 sequence": "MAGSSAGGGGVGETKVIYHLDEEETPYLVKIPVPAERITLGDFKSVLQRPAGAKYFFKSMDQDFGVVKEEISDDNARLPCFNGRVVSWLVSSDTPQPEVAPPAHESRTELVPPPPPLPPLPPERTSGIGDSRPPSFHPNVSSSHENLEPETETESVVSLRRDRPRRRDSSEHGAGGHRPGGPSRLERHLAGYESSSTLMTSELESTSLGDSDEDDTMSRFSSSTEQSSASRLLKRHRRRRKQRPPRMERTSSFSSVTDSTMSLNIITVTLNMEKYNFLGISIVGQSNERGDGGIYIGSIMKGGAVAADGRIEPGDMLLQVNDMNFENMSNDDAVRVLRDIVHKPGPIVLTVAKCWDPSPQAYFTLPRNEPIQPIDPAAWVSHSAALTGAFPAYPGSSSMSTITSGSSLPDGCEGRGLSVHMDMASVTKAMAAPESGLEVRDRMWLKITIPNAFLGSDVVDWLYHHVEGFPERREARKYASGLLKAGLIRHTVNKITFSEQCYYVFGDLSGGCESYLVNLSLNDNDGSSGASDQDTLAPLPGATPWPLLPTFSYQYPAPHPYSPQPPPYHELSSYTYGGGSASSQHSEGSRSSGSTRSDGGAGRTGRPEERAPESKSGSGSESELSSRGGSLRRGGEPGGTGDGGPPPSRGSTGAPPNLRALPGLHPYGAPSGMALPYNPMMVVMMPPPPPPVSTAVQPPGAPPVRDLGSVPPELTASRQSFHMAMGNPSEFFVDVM", "assay": "co-IP; endogenous proteins in mouse bone marrow, reciprocal"}, "[2]": {"molecular_target": "T2, Dishevelled 2 (Dvl2), endogenous in zebrafish embryos (zebrafish (endogenous in embryos)) (UniProt Q803Q5)", "T2 sequence": "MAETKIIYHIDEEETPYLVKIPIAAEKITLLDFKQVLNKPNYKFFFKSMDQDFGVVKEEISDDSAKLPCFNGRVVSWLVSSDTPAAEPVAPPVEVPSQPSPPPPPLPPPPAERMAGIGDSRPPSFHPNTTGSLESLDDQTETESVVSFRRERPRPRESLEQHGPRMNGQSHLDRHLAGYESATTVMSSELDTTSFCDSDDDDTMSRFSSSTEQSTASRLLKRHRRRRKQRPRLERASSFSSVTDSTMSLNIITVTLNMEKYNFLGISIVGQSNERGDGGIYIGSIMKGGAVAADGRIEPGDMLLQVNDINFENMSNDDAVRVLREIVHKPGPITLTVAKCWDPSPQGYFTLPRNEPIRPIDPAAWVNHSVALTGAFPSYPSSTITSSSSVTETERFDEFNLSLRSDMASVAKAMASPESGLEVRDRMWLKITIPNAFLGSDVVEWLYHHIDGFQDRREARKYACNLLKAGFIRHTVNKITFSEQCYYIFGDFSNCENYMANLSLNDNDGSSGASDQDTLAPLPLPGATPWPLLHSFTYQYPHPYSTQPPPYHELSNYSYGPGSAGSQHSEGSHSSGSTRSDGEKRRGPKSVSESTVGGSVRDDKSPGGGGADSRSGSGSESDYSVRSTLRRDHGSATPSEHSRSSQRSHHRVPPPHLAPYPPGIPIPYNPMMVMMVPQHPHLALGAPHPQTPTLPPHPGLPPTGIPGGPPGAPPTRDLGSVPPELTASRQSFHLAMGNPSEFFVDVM", "assay": "co-IP; endogenous proteins in zebrafish embryos (Cftr-Dvl2: reciprocal, 5 hpf; Dvl2-Dpr1: wild type and cftr mutant embryos)"}},
  "note": "Results are given in words; binding and its absence hold for the method and conditions named. In cells and extracts the contact can be indirect. Some entries that bind do so weakly or less than the wild type.",
  "data": [
    {"molecule": "Cftr, endogenous in mouse bone marrow (from UniProt P26361 1-1476)", "values": [
      {"measurement": "binding", "setting": "[1]", "value": "binds"}
    ]},
    {"molecule": "B1", "values": [
      {"measurement": "binding", "setting": "[2]", "value": "binds"}
    ]}
  ]
}
